This is one part of the list.

Amino acid sequences for entries named in this document (tags omitted). A change or cut given only in a name is not applied to a line headed by its entry.
UniProt O60701: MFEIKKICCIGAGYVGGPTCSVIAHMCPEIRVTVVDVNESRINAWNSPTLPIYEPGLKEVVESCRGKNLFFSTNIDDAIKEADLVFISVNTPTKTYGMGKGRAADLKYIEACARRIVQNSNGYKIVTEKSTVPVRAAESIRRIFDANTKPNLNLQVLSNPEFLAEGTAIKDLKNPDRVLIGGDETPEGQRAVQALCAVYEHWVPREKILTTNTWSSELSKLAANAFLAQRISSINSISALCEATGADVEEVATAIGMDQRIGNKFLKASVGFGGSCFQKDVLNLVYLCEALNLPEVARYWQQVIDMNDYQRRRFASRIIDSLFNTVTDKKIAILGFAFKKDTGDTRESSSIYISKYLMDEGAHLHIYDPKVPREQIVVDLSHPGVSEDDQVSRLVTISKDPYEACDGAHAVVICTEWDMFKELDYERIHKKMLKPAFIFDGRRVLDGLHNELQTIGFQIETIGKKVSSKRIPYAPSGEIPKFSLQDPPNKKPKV
UniProt Q92890: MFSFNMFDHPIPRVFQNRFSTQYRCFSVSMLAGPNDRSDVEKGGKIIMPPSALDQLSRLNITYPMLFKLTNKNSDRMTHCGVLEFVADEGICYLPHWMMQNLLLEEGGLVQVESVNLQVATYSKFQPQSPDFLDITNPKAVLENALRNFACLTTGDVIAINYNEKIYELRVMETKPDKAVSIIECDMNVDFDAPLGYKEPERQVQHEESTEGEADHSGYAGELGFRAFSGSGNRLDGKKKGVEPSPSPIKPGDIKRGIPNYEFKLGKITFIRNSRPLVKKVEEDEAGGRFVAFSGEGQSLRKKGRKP
UniProt O14957: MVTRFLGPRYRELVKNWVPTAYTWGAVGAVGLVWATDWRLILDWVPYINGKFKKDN
UniProt Q9NYH9: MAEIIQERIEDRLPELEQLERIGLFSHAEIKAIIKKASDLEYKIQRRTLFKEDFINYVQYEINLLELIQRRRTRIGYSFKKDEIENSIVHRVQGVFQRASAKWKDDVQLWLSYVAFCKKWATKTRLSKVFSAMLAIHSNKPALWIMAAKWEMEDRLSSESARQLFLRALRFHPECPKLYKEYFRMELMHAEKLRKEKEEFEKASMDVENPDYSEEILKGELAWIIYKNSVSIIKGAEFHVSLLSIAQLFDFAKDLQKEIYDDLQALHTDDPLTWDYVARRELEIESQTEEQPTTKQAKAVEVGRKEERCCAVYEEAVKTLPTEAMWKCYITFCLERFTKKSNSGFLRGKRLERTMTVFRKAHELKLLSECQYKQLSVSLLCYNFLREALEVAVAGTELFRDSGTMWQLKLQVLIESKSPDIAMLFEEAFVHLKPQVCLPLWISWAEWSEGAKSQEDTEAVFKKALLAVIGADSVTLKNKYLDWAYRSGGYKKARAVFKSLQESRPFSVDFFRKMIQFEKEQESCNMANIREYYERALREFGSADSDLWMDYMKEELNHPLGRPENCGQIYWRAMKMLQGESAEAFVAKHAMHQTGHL
UniProt Q9NYU1: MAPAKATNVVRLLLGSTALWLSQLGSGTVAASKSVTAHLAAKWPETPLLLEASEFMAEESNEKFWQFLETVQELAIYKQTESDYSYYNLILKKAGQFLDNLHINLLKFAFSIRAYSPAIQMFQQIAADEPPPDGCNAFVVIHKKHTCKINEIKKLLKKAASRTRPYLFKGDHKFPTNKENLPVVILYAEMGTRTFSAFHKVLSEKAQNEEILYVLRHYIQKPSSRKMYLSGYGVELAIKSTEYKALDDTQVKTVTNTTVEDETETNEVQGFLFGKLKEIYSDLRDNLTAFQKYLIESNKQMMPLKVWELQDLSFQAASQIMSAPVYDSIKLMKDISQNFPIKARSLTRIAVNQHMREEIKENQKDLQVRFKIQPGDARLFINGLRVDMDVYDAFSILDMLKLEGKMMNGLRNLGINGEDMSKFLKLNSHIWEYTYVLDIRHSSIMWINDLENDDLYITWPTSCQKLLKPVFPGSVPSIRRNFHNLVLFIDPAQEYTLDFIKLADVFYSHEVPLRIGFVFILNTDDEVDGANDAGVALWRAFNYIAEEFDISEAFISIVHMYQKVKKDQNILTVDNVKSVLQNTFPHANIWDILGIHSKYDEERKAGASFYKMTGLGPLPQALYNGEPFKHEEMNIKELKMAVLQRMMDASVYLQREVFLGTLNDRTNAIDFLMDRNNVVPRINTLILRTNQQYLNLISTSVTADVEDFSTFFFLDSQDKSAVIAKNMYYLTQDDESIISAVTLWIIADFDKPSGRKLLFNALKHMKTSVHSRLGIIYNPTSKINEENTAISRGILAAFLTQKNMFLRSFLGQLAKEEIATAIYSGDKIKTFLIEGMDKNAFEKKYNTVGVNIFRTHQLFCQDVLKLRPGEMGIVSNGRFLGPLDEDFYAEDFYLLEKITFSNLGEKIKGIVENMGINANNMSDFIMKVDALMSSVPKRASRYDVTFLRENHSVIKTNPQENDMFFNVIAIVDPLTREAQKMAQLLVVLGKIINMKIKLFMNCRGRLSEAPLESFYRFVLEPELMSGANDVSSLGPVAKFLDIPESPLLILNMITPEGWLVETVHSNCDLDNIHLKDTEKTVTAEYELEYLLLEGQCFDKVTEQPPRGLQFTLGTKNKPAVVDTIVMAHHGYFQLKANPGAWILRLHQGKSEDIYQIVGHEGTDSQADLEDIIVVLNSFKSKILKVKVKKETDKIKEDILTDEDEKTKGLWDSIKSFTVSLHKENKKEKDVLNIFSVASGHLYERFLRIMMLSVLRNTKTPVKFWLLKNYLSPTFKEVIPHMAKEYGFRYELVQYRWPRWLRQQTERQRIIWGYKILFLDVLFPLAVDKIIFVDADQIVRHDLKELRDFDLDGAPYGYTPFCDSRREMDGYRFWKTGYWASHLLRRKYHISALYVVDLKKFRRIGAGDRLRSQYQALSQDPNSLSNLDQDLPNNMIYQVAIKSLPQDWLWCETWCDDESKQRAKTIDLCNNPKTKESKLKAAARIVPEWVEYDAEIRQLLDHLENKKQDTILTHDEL
UniProt Q8IZJ1, whole entry, looked up: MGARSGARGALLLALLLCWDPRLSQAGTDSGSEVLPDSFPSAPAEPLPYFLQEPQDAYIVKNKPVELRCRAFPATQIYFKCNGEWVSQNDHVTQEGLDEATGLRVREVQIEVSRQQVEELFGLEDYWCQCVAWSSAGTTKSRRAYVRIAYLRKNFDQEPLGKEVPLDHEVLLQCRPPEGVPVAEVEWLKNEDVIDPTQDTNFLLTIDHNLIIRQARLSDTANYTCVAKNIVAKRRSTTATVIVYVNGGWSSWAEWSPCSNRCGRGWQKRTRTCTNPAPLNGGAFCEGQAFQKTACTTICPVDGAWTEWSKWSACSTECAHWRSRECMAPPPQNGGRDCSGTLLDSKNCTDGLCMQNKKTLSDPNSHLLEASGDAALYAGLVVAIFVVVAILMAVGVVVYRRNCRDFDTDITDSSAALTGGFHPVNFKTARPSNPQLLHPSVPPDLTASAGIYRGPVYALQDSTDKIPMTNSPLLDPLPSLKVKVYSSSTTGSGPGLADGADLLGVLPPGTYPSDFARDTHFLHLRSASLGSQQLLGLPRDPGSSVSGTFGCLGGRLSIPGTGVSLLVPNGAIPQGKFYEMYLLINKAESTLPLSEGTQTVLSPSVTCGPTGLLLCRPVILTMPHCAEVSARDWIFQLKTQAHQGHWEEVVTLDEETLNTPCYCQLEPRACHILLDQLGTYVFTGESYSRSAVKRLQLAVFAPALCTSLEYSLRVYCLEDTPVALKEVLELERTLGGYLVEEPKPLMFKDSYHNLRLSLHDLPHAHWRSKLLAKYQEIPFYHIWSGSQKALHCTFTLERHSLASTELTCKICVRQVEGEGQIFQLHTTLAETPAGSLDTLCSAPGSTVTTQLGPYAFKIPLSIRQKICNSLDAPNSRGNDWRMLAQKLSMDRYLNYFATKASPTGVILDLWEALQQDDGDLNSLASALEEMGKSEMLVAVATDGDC
UniProt Q9BZI7: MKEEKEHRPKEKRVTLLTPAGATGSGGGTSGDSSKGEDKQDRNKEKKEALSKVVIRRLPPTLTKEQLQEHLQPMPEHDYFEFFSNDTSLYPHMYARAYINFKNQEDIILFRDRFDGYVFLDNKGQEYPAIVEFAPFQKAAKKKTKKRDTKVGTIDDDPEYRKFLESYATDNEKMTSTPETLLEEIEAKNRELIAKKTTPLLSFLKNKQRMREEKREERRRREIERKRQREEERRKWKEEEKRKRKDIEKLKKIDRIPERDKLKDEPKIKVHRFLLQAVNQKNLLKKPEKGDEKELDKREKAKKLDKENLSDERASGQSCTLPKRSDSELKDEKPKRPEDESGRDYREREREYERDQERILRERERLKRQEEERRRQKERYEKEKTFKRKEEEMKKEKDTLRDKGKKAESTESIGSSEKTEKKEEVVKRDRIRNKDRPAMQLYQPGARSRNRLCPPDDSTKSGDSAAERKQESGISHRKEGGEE
UniProt P63027, whole entry, looked up: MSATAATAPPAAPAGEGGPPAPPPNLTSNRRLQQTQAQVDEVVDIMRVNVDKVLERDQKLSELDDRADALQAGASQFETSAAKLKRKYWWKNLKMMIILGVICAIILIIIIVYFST
UniProt O94874: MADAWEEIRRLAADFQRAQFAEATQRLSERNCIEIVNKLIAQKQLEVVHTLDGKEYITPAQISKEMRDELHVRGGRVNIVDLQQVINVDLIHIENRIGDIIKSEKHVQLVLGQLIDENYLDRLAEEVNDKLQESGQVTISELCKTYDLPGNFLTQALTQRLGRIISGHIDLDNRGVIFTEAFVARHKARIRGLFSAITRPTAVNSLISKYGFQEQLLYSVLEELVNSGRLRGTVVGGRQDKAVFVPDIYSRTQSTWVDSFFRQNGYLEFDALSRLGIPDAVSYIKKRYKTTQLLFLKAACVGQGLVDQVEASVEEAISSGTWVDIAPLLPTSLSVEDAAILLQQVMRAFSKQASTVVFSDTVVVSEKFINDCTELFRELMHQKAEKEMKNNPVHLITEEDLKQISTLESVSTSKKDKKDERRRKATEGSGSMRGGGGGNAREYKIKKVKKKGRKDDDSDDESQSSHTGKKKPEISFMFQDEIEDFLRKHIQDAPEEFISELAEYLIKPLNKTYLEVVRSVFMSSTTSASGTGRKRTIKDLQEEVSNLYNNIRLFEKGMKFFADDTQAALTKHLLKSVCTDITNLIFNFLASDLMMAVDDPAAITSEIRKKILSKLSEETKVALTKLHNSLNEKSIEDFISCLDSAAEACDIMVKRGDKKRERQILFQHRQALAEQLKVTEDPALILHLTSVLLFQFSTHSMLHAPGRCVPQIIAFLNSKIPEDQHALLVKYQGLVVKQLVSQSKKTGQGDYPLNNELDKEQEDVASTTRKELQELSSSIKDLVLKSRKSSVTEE
UniProt Q13107: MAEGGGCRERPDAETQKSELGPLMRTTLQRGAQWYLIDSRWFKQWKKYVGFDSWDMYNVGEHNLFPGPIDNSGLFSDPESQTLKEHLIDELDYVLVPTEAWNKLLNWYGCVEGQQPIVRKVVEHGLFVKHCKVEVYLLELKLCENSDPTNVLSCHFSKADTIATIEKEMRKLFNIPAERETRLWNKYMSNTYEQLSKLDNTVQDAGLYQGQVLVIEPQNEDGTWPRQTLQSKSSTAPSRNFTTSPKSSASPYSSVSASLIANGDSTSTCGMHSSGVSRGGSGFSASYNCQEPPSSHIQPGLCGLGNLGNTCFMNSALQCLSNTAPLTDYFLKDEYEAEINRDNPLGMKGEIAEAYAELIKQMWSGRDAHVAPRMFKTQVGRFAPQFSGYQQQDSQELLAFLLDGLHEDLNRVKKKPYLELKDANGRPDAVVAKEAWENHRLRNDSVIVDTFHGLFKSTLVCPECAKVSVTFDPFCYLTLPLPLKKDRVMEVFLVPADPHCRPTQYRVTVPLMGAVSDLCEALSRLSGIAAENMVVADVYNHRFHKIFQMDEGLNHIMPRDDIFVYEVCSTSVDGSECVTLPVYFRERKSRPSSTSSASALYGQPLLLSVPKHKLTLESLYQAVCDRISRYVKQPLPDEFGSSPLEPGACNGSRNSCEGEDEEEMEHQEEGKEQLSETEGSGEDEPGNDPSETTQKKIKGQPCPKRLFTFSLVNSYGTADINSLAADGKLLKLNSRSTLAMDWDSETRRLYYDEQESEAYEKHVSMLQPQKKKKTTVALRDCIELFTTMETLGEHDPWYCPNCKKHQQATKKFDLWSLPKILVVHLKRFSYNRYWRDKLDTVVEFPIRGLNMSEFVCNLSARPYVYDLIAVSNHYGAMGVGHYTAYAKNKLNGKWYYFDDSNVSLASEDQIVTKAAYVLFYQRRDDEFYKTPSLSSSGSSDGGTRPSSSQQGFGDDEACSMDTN
UniProt Q9BZM5, whole entry, looked up: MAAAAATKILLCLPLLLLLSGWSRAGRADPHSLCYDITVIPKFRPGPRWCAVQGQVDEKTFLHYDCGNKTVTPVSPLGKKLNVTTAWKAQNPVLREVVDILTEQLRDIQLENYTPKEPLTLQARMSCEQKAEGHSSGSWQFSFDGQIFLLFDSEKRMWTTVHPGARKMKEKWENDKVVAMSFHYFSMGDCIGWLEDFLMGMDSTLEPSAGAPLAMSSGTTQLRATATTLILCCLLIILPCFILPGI

Compound in this test: C[C@H](Nc1ncnc2nc[nH]c12)c1cc2cccc(Cl)c2c(=O)n1-c1ccccc1 [duvelisib]
In words: log2 fold change, soluble protein after heating vs DMSO (PISA); higher = thermal stabilisation; K562 lysate, 10 uM; active = over 0.2 and 3.5 SD of the protein, either way, in both replicates (recomputed). In outline: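 To prepare the extract, K562 pellets were dounce-homogenised in PBS pH 7.4 with 1 mM MgCl2, giving crude material at 1 mg/mL protein. This was treated with 10 μM compound for 30 min, then heated in aliquots for 3 min over 48°C-58°C before pooling and addition of NP-40 to 0.5% at 4°C. Centrifugation at 21,000xg for 90 min left soluble protein in the supernatant, which TMTpro 16plex LC-MS/MS quantified with equalised channel sums. Results are log-two fold changes in thermal stability compared with solvent controls, from duplicates.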
On to UGDH (UniProt O60701), for which the log2 fold change is inactive: -0.063.

Consider USP32 (UniProt Q8NFA0), for which the log2 fold change is inactive: 0.042. To VIRMA (UniProt Q69YN4) belongs inactive: -0.027.

With UFD1 isoform 1 (UniProt Q92890), the log2 fold change is inactive: 0.019. Under VANGL1 (UniProt Q8TAA9) stands inactive: 0.099. To VARS2, A0A0G2JL52 belongs inactive: -0.014; to UFC1 (UniProt Q9Y3C8), inactive: 0.008; to UQCR11 (UniProt O14957), inactive: 0.01. For the target UIMC1 (UniProt Q96RL1), the log2 fold change was inactive: 0.034.

Turning to UTP6 (UniProt Q9NYH9), the log2 fold change was inactive: -0.044.

On to UQCRB (UniProt P14927), for which the log2 fold change is inactive: 0.005. Turning to USP5 isoform 2 (UniProt P45974), the log2 fold change was inactive: 0.003.

For UGGT2 (UniProt Q9NYU1), the log2 fold change is inactive: 0.075.

For the target UQCRH (UniProt P07919), the log2 fold change was inactive: -0.045. Under VCP (UniProt P55072) stands inactive: 0.013. To UHRF1BP1 (UniProt Q6BDS2) belongs inactive: -0.047; to UNC5B (UniProt Q8IZJ1), inactive: -0.048; to VCX3B (UniProt Q9H321), inactive: 0.101. Under UHRF1BP1L (UniProt A0JNW5) stands inactive: -0.014.

Turning to UNC45A (UniProt Q9H3U1), the log2 fold change was inactive: -0.003. Consider UPF3B (UniProt Q9BZI7), for which the log2 fold change was inactive: 0.016. In the case of UGGT1 (UniProt Q9NYU2), the log2 fold change is inactive: -0.023. Under VAMP2 (UniProt P63027) stands inactive: 0.051; under USP1 (UniProt O94782), inactive: -0.059; under USP13 (UniProt Q92995), inactive: -0.009. Under UFL1 (UniProt O94874) stands inactive: -0.004. Under USP4 (UniProt Q13107) stands inactive: -0.062; under VARS (UniProt P26640), inactive: 0.002. For the target ULBP2 (UniProt Q9BZM5), the log2 fold change is inactive: 0.005. Turning to UXS1 isoform 2 (UniProt Q8NBZ7), the log2 fold change was inactive: 0.023.

For USE1 (UniProt Q9NZ43), the log2 fold change was inactive: -0.056. As for USP48 isoform 8 (UniProt Q86UV5), the log2 fold change was inactive: -0.001.

Source of the values: the supplement of paper PMC10849652.
